A short description of this test: qHTS Assay for Lipid Storage Modulators in Drosophila S3 Cells.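 For cell number change: cells counted by Cell Tracker Red CMTPX staining in the red channel.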 The settings on record: BODIPY lipid droplet fluorescence, 18-24 h; for cell number change: measured here: cell count max response, cells fed with added oleic acid. Summed up: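 Drosophila S3 cells loaded with oleic acid (400 uM, as added) and compounds at several concentrations; lipid droplets imaged by 488-nm laser-scanning cytometry, 500–530 nm intensity and object ratio to cell channel. Percent activity normalized to 20 uM Triacsin C.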
On the technique in general: In qHTS, concentration-response curves come from the screen itself.

The mark [1] stands for this setting: measured here: cell number channel AC50, cells fed with added oleic acid.
The mark [2] stands for this setting: measured here: lipid fluorescence (Fed channel) AC50, cells fed with added oleic acid.

This is one part of the list. Further columns of the screen follow, without active or inactive calls. Compounds called inactive in the main read-out are mostly missing here. Potencies come from curve fits of mixed quality, noted in brackets. Where a SMILES comes first, the peptide text is derived from it. [ ]: non-standard residue; d: D form. ξ: configuration not given here. ξF = NC(Cc1ccccc1)C(=O)O

`O=C(NC(c1ccccc1)c1cc(Cl)c2cccnc2c1O)c1cccnc1` (configuration not stated): the cell number change was -58%. Further, the AC50 (commonly the concentration at which the activity in the assay is half-maximal) under setting [1] was 23.1 µM [falling, single point]. Also, the AC50 under setting [2] is 25.9 µM [falling, single point].
Take `Cc1[nH]nc2c1C(=O)CCC2`: the cell number change came to 1.13%. Besides, the half-maximal activity concentration (AC50) under setting [1] is 0.461 µM [falling, full curve, poor fit]. Also, the half-maximal activity concentration (AC50) under setting [2] was 0.13 µM [falling, full curve].
With `O=C1CCCN2N=C(SCC(=O)Nc3ccc([N+](=O)[O-])cc3)SC2=N1`, the cell number change amounted to 44.5%. Further, the AC50 under setting [1] is 9.2 µM [rising, partial curve]. Also, the AC50 under setting [2] was 0.206 µM [rising, single point].
In the case of `CC(=O)N1CCN(c2nc3cc4c(cc3nc2NS(=O)(=O)c2ccccc2)OCCO4)CC1`, the cell number change is -13.8%.
As for `NS(=O)(=O)c1ccc(CCNS(=O)(=O)c2ccc(Cl)nc2)cc1`, the cell number change is -8.74%.
On to `COCC(C)NS(=O)(=O)c1ccc(NC(=O)C(Cc2ccccc2)NC(N)=O)cc1` (configuration not stated), for which the cell number change came out at 0.739%.
Take `CCNc1c(NS(=O)(=O)c2ccc(OC)c(Cl)c2)c(=O)oc2ccccc12`: the cell number change amounted to 1.49%. For the same compound, the AC50 under setting [2] is 0.82 µM [rising, single point].
As for `CCOc1ccccc1N(CC(=O)Nc1ccc2c(c1)OCCO2)S(C)(=O)=O`, the cell number change was determined as 24.7%. Also, the AC50 under setting [2] was 0.517 µM [rising, single point].
Take `COc1ccc(C(=O)NC(=S)Nc2cccc3ncccc23)cc1[N+](=O)[O-]`: the cell number change was -17.8%. Further, under setting [2], the AC50 was 20.6 µM [falling, single point].
In the case of `COc1nc(OC)nc(N(C)CCO)n1`, the cell number change was -21.3%. For the same compound, under setting [2], the AC50 was 5.8 µM [falling, full curve].
With `Oc1c(Br)cc(Br)cc1/C=N/NC(=S)N[C@H]1CC2C=CC1C2` (some centres not stated), the cell number change was -40.2%. The AC50 under setting [1] is 13 µM [falling, single point].
Regarding `COc1cc(/C=C/C(=O)OCC(=O)N2CCN(S(=O)(=O)c3ccc(C)cc3C)CC2)cc(Cl)c1OC`, the AC50 under setting [2] was 18.4 µM [rising, single point].
On to `S=C(NCC1CCCO1)N1CCc2ccccc2C1` (configuration not stated), for which the cell number change stood at 38.2%. The half-maximal activity concentration (AC50) under setting [1] was 0.651 µM [rising, full curve, poor fit].
With `COc1ccc(NC(=O)CCNC(=O)Cn2ccc3ccccc3c2=O)cc1OC`, the cell number change came out at 15.8%.
As for `Nc1ccccc1SCC(=O)N1CCc2ccccc21`, the cell number change stood at 18.8%. Further, under setting [2], the AC50 is 23.1 µM [rising, single point].
`CCOC(=O)C(Cc1ccccc1)NC(=O)CNC(C)=O` (configuration not stated) (Ac-Gly-[ξF]-OEt): the cell number change was -29.5%. The AC50 under setting [1] was 0.13 µM [falling, full curve, poor fit].
For `COc1cccc(C(=O)OCC(=O)Nc2ccccc2N2CCOCC2)c1`, the cell number change was found to be 22.4%. Also, the AC50 under setting [2] was 10.3 µM [rising, partial curve, poor fit].
Take `CCOc1ccc(CNC(=O)CCCOc2cc(=O)n(C)c3ccccc23)cc1`: the AC50 under setting [2] is 0.651 µM [rising, single point].
Turning to `O=C1COc2ccc(C(=O)COC(=O)c3ccco3)cc2N1`, the cell number change is -19%. Also, under setting [2], the AC50 was 11.6 µM [falling, partial curve, poor fit].
With `O=C(c1cc2nc(-c3ccc(F)cc3)cc(C(F)(F)F)n2n1)N1CCOCC1`, the cell number change is -5.8%.
For the compound `CCC(=O)Nc1ccc(S(=O)(=O)N2CCc3ccccc3C2)cc1`, the AC50 under setting [2] is 0.146 µM [rising, full curve, poor fit].
Turning to `Cc1ccc(C(=O)c2cn[nH]c2-c2ccccc2O)cc1`, the cell number change was -21.9%. In addition, the AC50 under setting [2] was 32.6 µM [falling, single point].
With `CN1CCN(C(=O)c2cc(S(=O)(=O)Nc3ccccc3F)c(Cl)cc2Cl)CC1`, the cell number change turned out to be 9.51%. Further, under setting [1], the AC50 is 5.17 µM [falling, single point].
As for `Cc1ccc2c(c1)-n1c(nc3cc(F)ccc3c1=O)C(Cc1ccccc1)NC2=O` (configuration not stated), the cell number change worked out at 7.12%. Also, the AC50 under setting [2] is 25.9 µM [rising, single point].
Take `O=C1c2ccccc2NC(c2ccc(O)c(O)c2)N1c1ccccc1Cl` (configuration not stated): the cell number change was -7.46%. Besides, under setting [2], the AC50 is 20.6 µM [rising, single point].
For `CCC(C)C(=O)Nc1ccccc1N1CCN(c2ccc(F)cc2)CC1` (configuration not stated), the cell number change worked out at 17.9%. The AC50 under setting [1] is 0.0517 µM [rising, full curve, poor fit]. Moreover, the AC50 under setting [2] is 0.13 µM [rising, full curve, poor fit].
Take `CC1CCN(S(=O)(=O)N2CCN(C(=O)c3ccc4c(c3)OCO4)CC2)CC1`: the cell number change came out at 6.84%.
As for `CC(C)Cc1ccc(C#N)c(SCC(N)=O)n1`, the cell number change came to 1.11%. For the same compound, the AC50 under setting [2] was 1.46 µM [rising, partial curve, poor fit].
For `CCOC(=O)C1(Cc2ccc(OC)cc2)CCN(C(=O)c2cc(C)nn2C)CC1`, the cell number change is -3.4%. The AC50 under setting [1] is 6.51 µM [falling, single point]. For the same compound, the AC50 under setting [2] is 29.1 µM [falling, single point].
Turning to `COc1ccc(CCNC(=O)CCS(=O)(=O)c2ccc3nc(C)sc3c2)cc1OC`, the cell number change turned out to be 5.76%. For the same compound, under setting [2], the AC50 was 0.13 µM [rising, full curve, poor fit].
Take `COc1ccc(OC)c(C(=O)c2ccc(C(=O)Nc3ccc(NC(C)=O)cc3)cc2)c1`: the cell number change was found to be 85.9%. Also, the AC50 under setting [1] is 16.4 µM [rising, partial curve, poor fit].
With `COc1ccc(-c2cc(=O)oc3c(C)c(OCC(=O)NCCCn4ccnc4)ccc23)cc1`, the cell number change is 13.4%. For the same compound, the AC50 under setting [1] is 0.366 µM [rising, partial curve, poor fit].
Consider `CCOc1ccc(CCNC(=O)C2CCCN(c3nn4c(=O)cc(C)nc4s3)C2)cc1` (configuration not stated), for which the cell number change was -6.15%. Besides, the AC50 under setting [2] is 29.1 µM [rising, single point].
On to `O=C(CCc1c[nH]c2ccccc12)N1CCN(c2ccc(O)cc2)CC1`, for which the cell number change was -16.1%.
`C=CCn1c(CCC(O)CCCCC)n[nH]c1=S` (configuration not stated): the cell number change was -20.5%. Besides, the AC50 under setting [2] was 0.259 µM [rising, partial curve, poor fit].
As to `Cc1ccccc1OCc1nc2ccccc2c(=O)n1N`, under setting [1], the AC50 was 0.00461 µM [rising, full curve, poor fit].
For the compound `COc1ccccc1N1CCN(C(=O)c2cc3c(s2)-c2ccccc2OC3)CC1`, the cell number change was 9.51%. Besides, the AC50 under setting [2] was 2.91 µM [falling, single point].
Regarding `Cc1ccc(C)c(N2CCN(CC3CC=CCC3)CC2)c1` (configuration not stated), the cell number change is -25.7%. Moreover, the AC50 under setting [2] was 23.1 µM [falling, single point].
Turning to `CC(C)(C)C(=O)O/N=C(\N)c1ccc(Oc2cc(Cl)cc(Cl)c2)c([N+](=O)[O-])c1`, the cell number change was -8.56%.
For `CCOC(=O)Nc1ccc2c(CN3CCC(C(=O)OC)CC3)cc(=O)oc2c1`, the cell number change was found to be 7.44%. For the same compound, the AC50 under setting [2] was 3.66 µM [rising, partial curve].
With `Nc1c(Br)cc(Br)c(N2CCCC2=O)c1Br`, the cell number change is -39.4%. For the same compound, the AC50 under setting [1] is 0.0058 µM [falling, full curve, poor fit]. The AC50 under setting [2] was 23.1 µM [falling, partial curve].
In the case of `Cc1ccc(S(=O)(=O)Nc2cc(-c3ccc(Cl)cc3)nn2C)cc1`, the cell number change stood at 7.74%.
`Cc1ccccc1C(=O)N1CCC(C(=O)Nc2cc(C(F)(F)F)ccc2N2CCCC2)CC1`: the cell number change is 8.66%. The AC50 under setting [2] is 0.731 µM [falling, single point].
Consider `O=S(=O)(NCC(c1ccco1)N1CCCCC1)c1ccccc1C(F)(F)F` (configuration not stated), for which the cell number change is -4.79%. In addition, under setting [2], the AC50 is 14.6 µM [falling, single point].
Turning to `CC(Nc1oc(-c2ccco2)nc1C#N)c1ccccc1` (configuration not stated), the cell number change was found to be 14.8%. Also, the concentration at half-maximal activity (AC50) under setting [2] is 6.51 µM [rising, partial curve].
For the compound `CN(Cc1ccccc1)C(=O)C1CCCN1S(=O)(=O)c1ccc2c(c1)n(C)c(=O)c(=O)n2C` (configuration not stated), the cell number change is -3.78%. Also, under setting [2], the AC50 is 3.66 µM [falling, partial curve, poor fit].
Regarding `Cc1cc(C)cc(C(=O)N(Cc2ccco2)c2c(N)n(Cc3ccccc3)c(=O)[nH]c2=O)c1`, the cell number change stood at 19.2%. The AC50 under setting [2] was 0.00517 µM [falling, full curve, poor fit].
Turning to `Cc1nc2ccccc2c2nc(NC(=O)Cc3ccccc3)nn12`, the cell number change was -9.69%. Further, the AC50 under setting [2] is 1.64 µM [rising, partial curve].
With `COc1cc(NC(=O)Nc2cc(C)on2)cc(OC)c1OC`, the AC50 under setting [2] was 0.116 µM [falling, full curve, poor fit].
Take `COCCNC(=O)c1ccc(Cl)c(S(=O)(=O)Nc2cccc(C)c2C)c1`: the cell number change is -17.4%. Further, under setting [2], the concentration at half-maximal activity (AC50) was 0.00461 µM [falling, full curve, poor fit].
`NS(=O)(=O)c1ccc(NC(=O)Cn2nc(C(=O)O)c3ccccc3c2=O)cc1`: the cell number change was -20%. Moreover, under setting [1], the AC50 is 1.64 µM [falling, partial curve, poor fit]. The AC50 under setting [2] is 6.51 µM [rising, single point].
`O=C(c1cc(Cl)ccc1[N+](=O)[O-])n1cnc2ccccc21`: the cell number change was -11%.
For the compound `Cc1ccc(S(=O)(=O)Nc2cccc(-c3ccc(N4CCCCCC4)nn3)c2)c(C)c1`, the cell number change is -12.2%. Besides, the AC50 under setting [2] was 29.1 µM [falling, single point].
In the case of `O=C(NCCc1ccc(Cl)cc1)C1CCCN1C(=O)Nc1ccccc1` (configuration not stated), the cell number change came out at 1.29%. For the same compound, the AC50 under setting [2] is 32.6 µM [rising, single point].
Regarding `CN(C)c1ccnc2sc(C(=O)NCc3ccccc3)c(N)c12`, the cell number change turned out to be 19.4%. The AC50 under setting [2] is 1.16 µM [rising, partial curve].
Take `O=C(COC(=O)c1ccc(F)cc1F)Nc1cccnc1Cl`: the cell number change was found to be 3.88%. For the same compound, under setting [1], the AC50 was 0.116 µM [falling, full curve, poor fit]. The AC50 under setting [2] is 0.164 µM [falling, full curve, poor fit].
With `NC(=O)[C@@H]1CCNc2c(I)cc([N+](=O)[O-])cc2C(=O)N[C@@H](CCC(=O)O)C(=O)N[C@@H](CO)C(=O)N1`, the AC50 under setting [2] is 16.4 µM [rising, partial curve, poor fit].
Consider `Cc1csc(NC(=O)C2CC(=O)N(c3ccc4c(c3)OCCO4)C2)n1` (configuration not stated), for which the cell number change is -15.9%. Moreover, under setting [1], the AC50 is 0.731 µM [rising, single point]. Further, the AC50 under setting [2] is 0.651 µM [rising, single point].
Take `CS(=O)(=O)N1CCC(C(=O)Nc2ccccc2Br)CC1`: the cell number change turned out to be 1.46%. In addition, the AC50 under setting [2] is 3.26 µM [falling, partial curve].
For `Cc1cc(OCc2nc(-c3ccc(NC(=O)c4cccnc4)cc3)no2)ccc1Cl`, the cell number change came to 12.6%.

Source of the values: PubChem BioAssay AID2685 (National Center for Advancing Translational Sciences (NCATS), 2010).
